This passage reports binding results from paper PMC3923668.

Amino acid sequences for entries named in this document (tags omitted).
UniProt P20263: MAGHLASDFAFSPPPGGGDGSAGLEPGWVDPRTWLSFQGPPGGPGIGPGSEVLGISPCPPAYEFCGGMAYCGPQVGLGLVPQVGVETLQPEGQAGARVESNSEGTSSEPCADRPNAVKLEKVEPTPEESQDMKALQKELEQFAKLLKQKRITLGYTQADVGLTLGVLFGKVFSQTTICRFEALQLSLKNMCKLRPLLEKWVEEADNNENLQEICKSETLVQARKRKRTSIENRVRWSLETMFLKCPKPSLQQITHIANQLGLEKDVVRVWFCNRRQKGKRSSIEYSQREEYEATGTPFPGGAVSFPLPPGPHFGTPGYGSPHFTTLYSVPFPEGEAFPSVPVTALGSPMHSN

These are yes or no findings as the source states them, for the method shown. In cells and extracts the contact can be indirect. Some binding calls cover weakened binding; strength is not graded here.

The test addresses Oct4 (mouse (endogenous in mES cells)) (UniProt P20263). Put plainly: co-IP; lysate of wild type mouse ES cells; immunoprecipitated with anti-ZNF322A or anti-Oct4 antibody, Western blot with anti-Oct4 or anti-ZNF322a antibody; control IP with anti-IgG antibody. Background: In western blotting, separated proteins are transferred to a membrane and probed.

B1: Mouse zinc finger protein 322a (Zfp322a) (protein, UniProt Q8BZ89 1-410)
chain: MENHLGENHRRCTLQKRNVTRELKKGKHTMYALKRVKKIYIRVHEITQIDNQTYQCLEREQNFCENLARMCERTYTEEKPYRCDMCEKTFIQSSDLISHQRIHNYEKPYKCSKCEKSFWHHLALSGHQRTHAGKKFYTCDICGKNFGQSSDLLVHQRSHTGEKPYLCNECDKCFSRSTNLIRHRRTHTGEKPFKCLECEKAFSGKSDLISHQRTHTGERPYKCNKCEKSYRHRSAFIVHKRVHTGEKPYKCGACEKCFGQKSDLIVHQRVHTGEKPYKCLECMRSFTRSANLIRHQATHTHTFKCLEYEKSFNCSSDFIVHQRIHMEEKPHQWSMCESDFLLGMDFVAQQKMRAQTEELHYKYSVCDKTFHHSSALLQHQTVHIDDEYICNMSEKGLDLSSHASETSRVS
For the molecule B1, the binding result is given as “binds”.
